Assay results as given in publication PMC5421193.
These are yes or no findings as the source states them, for the method shown. For some assays here: In cells and extracts the contact can be indirect. Some binding calls cover weakened binding; strength is not graded here. For some assays here: Tags and fused reporters may be left off the sequences shown.

Legend:
[1] = molecular target: Arabidopsis FT (AtFT), bait in pGBKT7 (Arabidopsis thaliana), Q9SXZ2; assay: two-hybrid; AtFD as prey in PGADT7, FT/TFL1 homologs as bait in PGBKT7; co-transformed yeast selected on SD-Leu/-Trp, interactions tested on SD-Leu/-Trp/-His/-Ade/X-a-Gal; three independent clones for each transformation; settings: remark: other sources report otherwise
[2] = molecular target: AtFT-YFP^C (Arabidopsis FT fused to the C-terminal half of YFP) (Arabidopsis thaliana), Q9SXZ2; assay: split reporter; BiFC in N. benthamiana leaf epidermis cells; AtFD-YFP^N (pFGC-YN173) with FT/TFL1 homologs fused to YFP^C (pFGC-YC155); YFP fluorescence by confocal microscopy; settings: remark: other sources report otherwise

B1: Arabidopsis FD (AtFD), prey in pGADT7, Q84JK2 1-285 (protein)
chain: MLSSAKHQRNHRLSATNKNQTLTKVSSISSSSPSSSSSSSSTSSSSPLPSQDSQAQKRSLVTMEEVWNDINLASIHHLNRHSPHPQHNHEPRFRGQNHHNQNPNSIFQDFLKGSLNQEPAPTSQTTGSAPNGDSTTVTVLYSSPFPPPATVLSLNSGAGFEFLDNQDPLVTSNSNLHTHHHLSNAHAFNTSFEALVPSSSFGKKRGQDSNEGSGNRRHKRMIKNRESAARSRARKQAYTNELELEVAHLQAENARLKRQQDQLKMAAAIQQPKKNTLQRSSTAPF
binding [1]: binds

B2: AtFD-YFP^N (Arabidopsis FD fused to the N-terminal half of YFP), Q84JK2 1-285 (protein)
chain: MLSSAKHQRNHRLSATNKNQTLTKVSSISSSSPSSSSSSSSTSSSSPLPSQDSQAQKRSLVTMEEVWNDINLASIHHLNRHSPHPQHNHEPRFRGQNHHNQNPNSIFQDFLKGSLNQEPAPTSQTTGSAPNGDSTTVTVLYSSPFPPPATVLSLNSGAGFEFLDNQDPLVTSNSNLHTHHHLSNAHAFNTSFEALVPSSSFGKKRGQDSNEGSGNRRHKRMIKNRESAARSRARKQAYTNELELEVAHLQAENARLKRQQDQLKMAAAIQQPKKNTLQRSSTAPF
binding [2]: binds
